Test results reported in the supplement of paper PMC12819154, “High-throughput peptide-centric local stability assay extends protein–ligand identification to membrane proteins, tissues and bacteria” (Nature Structural & Molecular Biology, 2025).
The list shows a part of the results. Most entries show no effect beyond the scatter of the controls.

Chains of the proteins cited; added tags and fusions are not shown. Lines headed by an entry give the natural chain unless they say otherwise; changes in a name come on top.
UniProt Q80XD1: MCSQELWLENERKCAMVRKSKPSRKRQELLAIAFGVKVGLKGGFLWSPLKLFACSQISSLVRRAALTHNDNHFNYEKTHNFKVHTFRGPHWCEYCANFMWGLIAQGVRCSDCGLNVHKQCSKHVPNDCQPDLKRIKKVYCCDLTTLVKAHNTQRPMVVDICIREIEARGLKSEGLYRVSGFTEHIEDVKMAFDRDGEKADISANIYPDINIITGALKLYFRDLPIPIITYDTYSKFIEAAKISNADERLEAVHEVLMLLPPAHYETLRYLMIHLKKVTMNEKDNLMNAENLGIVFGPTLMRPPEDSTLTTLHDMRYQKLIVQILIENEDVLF
UniProt Q8BH07: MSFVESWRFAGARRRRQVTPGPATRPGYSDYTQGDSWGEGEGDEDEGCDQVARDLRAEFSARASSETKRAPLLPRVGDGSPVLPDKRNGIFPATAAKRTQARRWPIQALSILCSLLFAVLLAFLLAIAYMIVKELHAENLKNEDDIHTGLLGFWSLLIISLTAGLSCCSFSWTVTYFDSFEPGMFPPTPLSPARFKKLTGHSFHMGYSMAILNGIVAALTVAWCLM
UniProt Q80WR5: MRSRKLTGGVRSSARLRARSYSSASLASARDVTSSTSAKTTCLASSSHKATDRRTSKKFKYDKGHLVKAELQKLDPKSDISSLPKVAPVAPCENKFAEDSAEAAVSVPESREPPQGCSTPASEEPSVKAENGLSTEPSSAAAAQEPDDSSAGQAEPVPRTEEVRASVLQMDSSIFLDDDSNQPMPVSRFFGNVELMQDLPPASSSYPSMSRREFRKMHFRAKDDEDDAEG
UniProt Q80ZV0: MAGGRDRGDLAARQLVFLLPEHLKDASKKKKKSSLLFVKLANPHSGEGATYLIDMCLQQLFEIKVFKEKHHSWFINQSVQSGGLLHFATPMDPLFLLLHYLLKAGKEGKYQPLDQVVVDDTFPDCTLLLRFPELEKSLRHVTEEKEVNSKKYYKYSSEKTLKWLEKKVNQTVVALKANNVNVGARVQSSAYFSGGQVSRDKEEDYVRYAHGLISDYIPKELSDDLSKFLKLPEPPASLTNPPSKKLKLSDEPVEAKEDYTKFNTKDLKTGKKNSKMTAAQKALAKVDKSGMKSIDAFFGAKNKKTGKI
UniProt Q80XC2: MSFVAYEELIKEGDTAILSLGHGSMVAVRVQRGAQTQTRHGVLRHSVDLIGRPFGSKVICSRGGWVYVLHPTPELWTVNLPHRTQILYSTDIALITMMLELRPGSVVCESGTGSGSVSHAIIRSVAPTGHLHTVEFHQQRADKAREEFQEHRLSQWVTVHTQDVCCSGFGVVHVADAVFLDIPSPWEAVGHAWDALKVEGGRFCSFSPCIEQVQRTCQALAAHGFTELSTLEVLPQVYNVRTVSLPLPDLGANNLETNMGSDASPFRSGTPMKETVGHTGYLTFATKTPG
UniProt Q8BG15: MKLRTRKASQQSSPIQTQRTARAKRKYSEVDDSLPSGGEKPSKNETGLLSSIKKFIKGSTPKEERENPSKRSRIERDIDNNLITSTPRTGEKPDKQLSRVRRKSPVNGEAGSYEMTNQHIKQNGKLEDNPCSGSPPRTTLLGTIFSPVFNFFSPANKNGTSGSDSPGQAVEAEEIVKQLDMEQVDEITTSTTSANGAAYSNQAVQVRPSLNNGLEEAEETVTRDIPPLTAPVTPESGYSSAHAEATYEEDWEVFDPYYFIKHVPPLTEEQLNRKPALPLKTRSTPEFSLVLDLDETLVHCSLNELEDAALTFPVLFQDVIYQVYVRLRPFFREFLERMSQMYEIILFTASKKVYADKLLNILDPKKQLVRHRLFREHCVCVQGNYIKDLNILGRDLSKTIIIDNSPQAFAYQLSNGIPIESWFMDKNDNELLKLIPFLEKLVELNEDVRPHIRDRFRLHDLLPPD
UniProt Q80W47: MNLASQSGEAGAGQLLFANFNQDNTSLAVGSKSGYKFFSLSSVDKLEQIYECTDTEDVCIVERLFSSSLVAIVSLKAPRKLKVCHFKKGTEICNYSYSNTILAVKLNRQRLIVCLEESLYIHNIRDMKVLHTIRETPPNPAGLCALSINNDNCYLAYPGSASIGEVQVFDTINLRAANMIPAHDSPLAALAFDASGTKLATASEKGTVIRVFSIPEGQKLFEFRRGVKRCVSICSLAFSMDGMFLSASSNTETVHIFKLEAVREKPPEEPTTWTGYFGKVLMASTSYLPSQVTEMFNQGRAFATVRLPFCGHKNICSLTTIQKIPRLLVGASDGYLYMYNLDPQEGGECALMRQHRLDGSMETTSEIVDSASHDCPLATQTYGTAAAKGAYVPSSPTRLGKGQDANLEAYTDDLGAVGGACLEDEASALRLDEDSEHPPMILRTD
UniProt Q8BGT7: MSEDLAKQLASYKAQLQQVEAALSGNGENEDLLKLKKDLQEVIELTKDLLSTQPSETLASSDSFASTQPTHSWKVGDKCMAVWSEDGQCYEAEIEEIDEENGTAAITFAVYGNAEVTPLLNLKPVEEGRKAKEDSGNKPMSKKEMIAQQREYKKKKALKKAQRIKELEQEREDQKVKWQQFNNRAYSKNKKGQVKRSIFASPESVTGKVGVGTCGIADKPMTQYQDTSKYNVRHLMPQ
UniProt Q8BGZ4, whole entry: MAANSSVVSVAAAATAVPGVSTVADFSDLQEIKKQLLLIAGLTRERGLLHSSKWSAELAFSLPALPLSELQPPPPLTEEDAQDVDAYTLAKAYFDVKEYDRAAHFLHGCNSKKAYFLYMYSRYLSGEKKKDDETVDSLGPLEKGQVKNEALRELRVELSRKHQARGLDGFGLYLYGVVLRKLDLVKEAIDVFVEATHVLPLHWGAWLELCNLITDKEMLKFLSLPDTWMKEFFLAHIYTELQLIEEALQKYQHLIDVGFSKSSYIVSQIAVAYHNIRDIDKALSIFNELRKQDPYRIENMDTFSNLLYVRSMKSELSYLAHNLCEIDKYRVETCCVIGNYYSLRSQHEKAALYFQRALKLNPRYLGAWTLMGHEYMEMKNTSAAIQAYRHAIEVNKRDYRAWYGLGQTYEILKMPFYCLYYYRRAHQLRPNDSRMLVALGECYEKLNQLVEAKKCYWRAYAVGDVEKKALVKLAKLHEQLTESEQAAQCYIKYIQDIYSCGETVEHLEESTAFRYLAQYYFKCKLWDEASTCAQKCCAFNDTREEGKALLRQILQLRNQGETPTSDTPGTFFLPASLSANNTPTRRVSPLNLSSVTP
UniProt Q8BH16: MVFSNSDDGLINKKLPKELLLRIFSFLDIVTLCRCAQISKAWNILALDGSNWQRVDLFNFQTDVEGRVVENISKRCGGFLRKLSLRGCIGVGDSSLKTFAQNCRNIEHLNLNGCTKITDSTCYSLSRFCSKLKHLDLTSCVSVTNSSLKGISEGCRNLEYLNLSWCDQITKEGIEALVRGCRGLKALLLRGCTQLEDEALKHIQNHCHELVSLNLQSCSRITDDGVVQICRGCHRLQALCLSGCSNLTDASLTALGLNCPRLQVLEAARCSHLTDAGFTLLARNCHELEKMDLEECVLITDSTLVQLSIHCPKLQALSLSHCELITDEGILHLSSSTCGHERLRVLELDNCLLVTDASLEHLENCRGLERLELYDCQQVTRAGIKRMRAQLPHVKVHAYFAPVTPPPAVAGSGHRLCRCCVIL
UniProt Q80YV4: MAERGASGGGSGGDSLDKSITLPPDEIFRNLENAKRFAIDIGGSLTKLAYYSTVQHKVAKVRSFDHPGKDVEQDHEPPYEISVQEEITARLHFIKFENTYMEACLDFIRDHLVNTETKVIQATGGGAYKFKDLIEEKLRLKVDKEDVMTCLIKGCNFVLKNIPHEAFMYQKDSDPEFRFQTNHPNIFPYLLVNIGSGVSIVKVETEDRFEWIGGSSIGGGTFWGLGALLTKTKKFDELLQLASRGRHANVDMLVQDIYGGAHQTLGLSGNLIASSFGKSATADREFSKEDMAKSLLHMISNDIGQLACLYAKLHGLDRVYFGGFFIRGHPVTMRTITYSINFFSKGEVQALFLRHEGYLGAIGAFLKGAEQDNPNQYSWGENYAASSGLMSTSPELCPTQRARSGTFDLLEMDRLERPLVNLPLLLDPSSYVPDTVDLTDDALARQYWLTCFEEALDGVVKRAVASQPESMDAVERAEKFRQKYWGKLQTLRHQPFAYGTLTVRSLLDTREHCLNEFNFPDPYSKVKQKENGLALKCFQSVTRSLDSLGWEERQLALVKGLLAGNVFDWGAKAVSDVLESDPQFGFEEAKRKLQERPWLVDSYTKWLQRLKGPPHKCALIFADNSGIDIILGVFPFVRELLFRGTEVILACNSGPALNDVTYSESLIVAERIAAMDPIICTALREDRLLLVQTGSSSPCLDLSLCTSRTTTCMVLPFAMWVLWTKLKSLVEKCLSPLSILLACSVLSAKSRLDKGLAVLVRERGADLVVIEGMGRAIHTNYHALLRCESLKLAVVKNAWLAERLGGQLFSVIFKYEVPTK
UniProt Q80XM9: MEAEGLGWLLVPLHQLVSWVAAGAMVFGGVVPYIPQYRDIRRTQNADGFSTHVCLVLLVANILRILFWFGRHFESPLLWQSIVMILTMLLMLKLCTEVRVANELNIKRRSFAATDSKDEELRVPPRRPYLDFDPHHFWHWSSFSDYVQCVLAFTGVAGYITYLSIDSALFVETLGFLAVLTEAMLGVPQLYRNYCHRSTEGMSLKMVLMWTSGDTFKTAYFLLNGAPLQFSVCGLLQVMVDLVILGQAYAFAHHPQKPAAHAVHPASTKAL
UniProt Q8BGL3: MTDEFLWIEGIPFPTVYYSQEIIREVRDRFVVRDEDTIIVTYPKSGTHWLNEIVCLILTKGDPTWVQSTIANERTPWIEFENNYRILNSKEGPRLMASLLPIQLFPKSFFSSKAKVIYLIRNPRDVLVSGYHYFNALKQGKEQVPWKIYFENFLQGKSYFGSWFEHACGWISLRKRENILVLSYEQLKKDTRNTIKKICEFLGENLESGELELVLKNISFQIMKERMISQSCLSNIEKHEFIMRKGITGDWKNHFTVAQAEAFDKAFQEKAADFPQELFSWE
UniProt Q80YW0: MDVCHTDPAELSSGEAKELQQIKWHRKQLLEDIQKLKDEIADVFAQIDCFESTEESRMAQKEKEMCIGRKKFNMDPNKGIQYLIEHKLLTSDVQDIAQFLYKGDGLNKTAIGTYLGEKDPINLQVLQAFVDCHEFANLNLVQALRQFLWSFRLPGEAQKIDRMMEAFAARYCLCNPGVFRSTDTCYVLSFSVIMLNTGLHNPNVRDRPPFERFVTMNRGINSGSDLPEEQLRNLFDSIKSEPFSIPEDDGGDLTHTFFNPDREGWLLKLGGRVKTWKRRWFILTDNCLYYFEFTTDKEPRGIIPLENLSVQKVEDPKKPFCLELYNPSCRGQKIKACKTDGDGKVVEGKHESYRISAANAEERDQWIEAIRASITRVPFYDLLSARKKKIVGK
UniProt Q8BFT2: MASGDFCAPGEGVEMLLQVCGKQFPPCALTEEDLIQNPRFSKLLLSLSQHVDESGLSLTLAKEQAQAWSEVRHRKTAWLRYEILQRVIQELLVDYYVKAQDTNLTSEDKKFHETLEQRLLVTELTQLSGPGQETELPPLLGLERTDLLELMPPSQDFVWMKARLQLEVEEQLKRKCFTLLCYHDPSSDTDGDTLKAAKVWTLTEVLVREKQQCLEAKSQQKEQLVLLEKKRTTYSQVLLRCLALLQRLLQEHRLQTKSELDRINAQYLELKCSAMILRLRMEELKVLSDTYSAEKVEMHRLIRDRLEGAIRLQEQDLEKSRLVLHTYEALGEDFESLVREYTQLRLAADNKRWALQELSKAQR
UniProt Q8BGY7: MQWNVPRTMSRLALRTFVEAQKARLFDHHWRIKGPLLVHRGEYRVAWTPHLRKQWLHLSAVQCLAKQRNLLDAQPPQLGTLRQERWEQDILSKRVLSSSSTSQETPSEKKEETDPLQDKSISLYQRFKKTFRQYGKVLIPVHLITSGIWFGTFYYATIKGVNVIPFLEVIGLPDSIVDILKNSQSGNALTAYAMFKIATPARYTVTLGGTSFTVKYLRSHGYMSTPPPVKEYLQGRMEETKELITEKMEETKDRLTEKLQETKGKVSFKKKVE
UniProt Q8BH47: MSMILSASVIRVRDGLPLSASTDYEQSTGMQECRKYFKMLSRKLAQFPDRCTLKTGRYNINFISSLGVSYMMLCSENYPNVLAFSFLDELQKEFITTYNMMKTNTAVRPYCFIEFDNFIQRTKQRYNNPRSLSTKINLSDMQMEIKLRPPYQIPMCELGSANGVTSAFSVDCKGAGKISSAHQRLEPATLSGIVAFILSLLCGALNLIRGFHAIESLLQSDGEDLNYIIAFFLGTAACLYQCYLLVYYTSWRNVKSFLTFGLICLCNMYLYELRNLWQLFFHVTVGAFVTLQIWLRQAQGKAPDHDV
UniProt Q8BFQ8: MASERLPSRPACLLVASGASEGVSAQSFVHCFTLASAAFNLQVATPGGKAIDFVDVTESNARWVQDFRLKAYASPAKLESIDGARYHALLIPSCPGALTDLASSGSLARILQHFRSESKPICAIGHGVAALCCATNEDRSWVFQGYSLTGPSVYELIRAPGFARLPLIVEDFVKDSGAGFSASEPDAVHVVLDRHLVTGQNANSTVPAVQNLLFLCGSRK

Compound: CN[C@@H]1C[C@H]2O[C@@](C)([C@@H]1OC)n1c3ccccc3c3c4c(c5c6ccccc6n2c5c31)C(=O)NC4 [staurosporine]
Experiment: log2 fold change of tryptic peptide abundance, ligand vs vehicle (limited proteolysis) (log2 ratio); higher = more trypsin-susceptible (destabilized)
Conditions: ligand concentration: 20 uM; sample: mouse liver crude lysate; replicate design: treated separately

Row | Target | log2 fold change
1 | UniProt Q80XD1 (peptide sequence: CSDCGLNVHKQCSK, peptide start residue: 109) | -0.25
2 | UniProt Q80YS5 (peptide sequence: SFPDHFSR, peptide start residue: 33) | 0.203
3 | UniProt Q8BGR6 (peptide sequence: AVPFQNAVLNVK, peptide start residue: 70) | -0.15
4 | UniProt Q80ZM3 (peptide sequence: VLIGDPGRPQFSGHSIR, peptide start residue: 207) | -0.0395
5 | UniProt Q8BH07 (peptide sequence: NGIFPATAAK, peptide start residue: 88) | 0.172
6 | UniProt Q80WR5 (peptide sequence: VAPVAPCENK, peptide start residue: 86) | -0.0506
7 | UniProt Q80ZV0 (peptide sequence: SIDAFFGAK, peptide start residue: 293) | 0.168
8 | UniProt Q80Z25 (peptide sequence: LLEEERK, peptide start residue: 131) | -0.116
9 | UniProt Q8BH70 (peptide sequence: GDMMNSHR, peptide start residue: 29) | -0.0805
10 | UniProt Q80X80 (peptide sequence: QVCPLTPGPGK, peptide start residue: 383) | 0.3
11 | UniProt Q80XC2 (peptide sequence: HSVDLIGRPFGSK, peptide start residue: 45) | 0.082
12 | UniProt Q8BG15 (peptide sequence: DIDNNLITSTPR, peptide start residue: 77) | 0.188
13 | UniProt Q80W47 (peptide sequence: GAYVPSSPTR, peptide start residue: 389) | -0.137
14 | UniProt Q8BGT7 (peptide sequence: DLQEVIELTK, peptide start residue: 38) | 0.234
15 | UniProt Q8BGZ4 (peptide sequence: CCAFNDTREEGK, peptide start residue: 536) | 0.533
16 | UniProt Q810U5 (peptide sequence: SKEGDEAHR, peptide start residue: 248) | -0.616

Row | Target | log2 fold change
17 | UniProt Q80ZI6 (peptide sequence: VGVSEAGLQHEILR, peptide start residue: 611) | 0.531
18 | UniProt Q8BH16 (peptide sequence: TFAQNCR, peptide start residue: 111) | -0.121
19 | UniProt Q8BFW4 (peptide sequence: KQALGQVLNEK, peptide start residue: 209) | 0.493
20 | UniProt Q8BGA5 (peptide sequence: LKMEADEK, peptide start residue: 367) | -0.379
21 | UniProt Q8BGZ3 (peptide sequence: HNVSPVPVYAHITHK, peptide start residue: 224) | 0.335
22 | UniProt Q80YV4 (peptide sequence: LKVDKEDVMTCLIK, peptide start residue: 140) | 0.33
23 | UniProt Q80XM9 (peptide sequence: SFAATDSKDEELR, peptide start residue: 110) | 0.0988
24 | UniProt Q8BGL3 (peptide sequence: AKVIYLIR, peptide start residue: 114) | 0.224
25 | UniProt Q80WS3 (peptide sequence: KRTNIIPVLEDAR, peptide start residue: 200) | -0.0844
26 | UniProt Q80YW0 (peptide sequence: DRPPFER, peptide start residue: 206) | -0.175
27 | UniProt Q8BFT2 (peptide sequence: FHETLEQR, peptide start residue: 111) | 0.231
28 | UniProt Q8BGY7 (peptide sequence: KEETDPLQDK, peptide start residue: 110) | 0.479
29 | UniProt Q8BH47 (peptide sequence: EFITTYNMMK, peptide start residue: 93) | 0.145
30 | UniProt Q8BFQ8 (peptide sequence: AYASPAKLESIDGAR, peptide start residue: 71) | 0.386
31 | UniProt Q80Z37 (peptide sequence: KYYYYER, peptide start residue: 759) | -0.209

As entered above.
For log2 fold change, UniProt Q80XM9 (peptide sequence: SFAATDSKDEELR, peptide start residue: 110) shows 0.0988
For log2 fold change, UniProt Q8BFQ8 (peptide sequence: AYASPAKLESIDGAR, peptide start residue: 71) shows 0.386
